Taken from: PubChem BioAssay AID1259254 (NCATS, 2017)
The deposit covers about 59,000 reagents; this is an unselected part. About 1,550 of them (2.6%) count as active. 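G2 share is only a proxy for re-replication; each gene was hit by three separate siRNAs, and active genes were retested.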 The raw values are shown without normalisation. Unmarked entries are inactive. Reagents against one gene are numbered here. The record does not give: the amount of reagent.

- Assay: 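Gene knock-downs that lead to re-replication, shown by excess G2 DNA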 (primary screen)
- System: human HCT116 colorectal cancer cells
- Knock-down reagent: single siRNA against human genes
- Duration: 3 days
- Read-out: 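Nuclei stained with Hoechst and imaged; cell-cycle phase assigned by DNA content; G2 share scaled per plate, non-targeting siRNA 0%, GMNN siRNA 100%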
- Scale: G2 robust z-score and G2 cells, % of GMNN control: higher = more G2 cells, more excess DNA replication; raw share of cells in G2: higher = larger share of cells with G2 DNA content
- Hit rule: 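Active siRNAs have a G2 robust z of 5 or more median absolute deviations over the median, which in these data means about 38% or higher of GMNN control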

target gene	siRNA no.	G2 robust z-score	G2 cells, % of GMNN control	raw share of cells in G2 (%)
FOXB1 (forkhead box B1)	1	-0.613	-1.35	3.74
FOXB1 (forkhead box B1)	2	-0.447	-0.174	3.93
FOXB1 (forkhead box B1)	3	0.962	9.73	10.6
CSDC2 (cold shock domain containing C2)	1	1.56	13.9	8.54
CSDC2 (cold shock domain containing C2)	2	4.45	34.3	21.7
CSDC2 (cold shock domain containing C2)	3	2.69	21.9	11.5
CSDE1 (cold shock domain containing E1)	1	-0.0858	2.36	6.18
CSDE1 (cold shock domain containing E1)	2	-0.546	-0.877	3.55
CSDE1 (cold shock domain containing E1)	3	0.763	8.34	6.3
SPATA31C1 (SPATA31 subfamily C member 1)	1	0.142	3.97	5.15
SPATA31C1 (SPATA31 subfamily C member 1)	2	0.269	4.86	5.26
SPATA31C1 (SPATA31 subfamily C member 1)	3	-0.228	1.36	3.58
PPARGC1B (PPARG coactivator 1 beta)	1	-0.16	1.84	3.72
PPARGC1B (PPARG coactivator 1 beta)	2	0.886	9.2	6.36
PPARGC1B (PPARG coactivator 1 beta)	3	-0.18	1.7	4.12
ZNF793 (zinc finger protein 793)	1	1	10	6.54
ZNF793 (zinc finger protein 793)	2	1.6	14.2	8.11
ZNF793 (zinc finger protein 793)	3	-0.503	-0.572	3.32
SHC2 (SHC adaptor protein 2)	1	-0.57	-1.04	3.65
SHC2 (SHC adaptor protein 2)	2	4.44	34.2	21.7
SHC2 (SHC adaptor protein 2)	3	0.376	5.61	6.05
RGS2 (regulator of G protein signaling 2)	1	0.604	7.21	7.46
RGS2 (regulator of G protein signaling 2)	2	0.14	3.95	5.46
RGS2 (regulator of G protein signaling 2)	3	2.97	23.8	13.8
KDM3B (lysine demethylase 3B)	1	0.00924	3.03	3.86
KDM3B (lysine demethylase 3B)	2	-0.221	1.41	6.55
KDM3B (lysine demethylase 3B)	3	-0.624	-1.43	3.18
ZNF2 (zinc finger protein 2)	1	0.385	5.68	5.42
ZNF2 (zinc finger protein 2)	2	-0.589	-1.17	5.46
ZNF2 (zinc finger protein 2)	3	-0.495	-0.517	3.12
PLAC4 (placenta associated 4)	1	0.766	8.35	6.6
PLAC4 (placenta associated 4)	2	-0.447	-0.174	2.9
PLAC4 (placenta associated 4)	3	-0.718	-2.08	2.1
PHYH (phytanoyl-CoA 2-hydroxylase)	1	0.187	4.28	6.19
PHYH (phytanoyl-CoA 2-hydroxylase)	2	0.331	5.3	5.09
PHYH (phytanoyl-CoA 2-hydroxylase)	3	-0.843	-2.96	3.41
HS3ST3A1 (heparan sulfate-glucosamine 3-sulfotransferase 3A1)	1	0.21	4.44	4.72
HS3ST3A1 (heparan sulfate-glucosamine 3-sulfotransferase 3A1)	2	0.0647	3.42	6.14
HS3ST3A1 (heparan sulfate-glucosamine 3-sulfotransferase 3A1)	3	-0.562	-0.985	4.83
TSKU (tsukushi, small leucine rich proteoglycan)	1	1.64	14.5	12.7
TSKU (tsukushi, small leucine rich proteoglycan)	2	2.79	22.6	11.7
TSKU (tsukushi, small leucine rich proteoglycan)	3	-1.39	-6.83	1.76
TMEM230 (transmembrane protein 230)	1	1.1	10.7	6.64
TMEM230 (transmembrane protein 230)	2	-0.33	0.644	4.1
TMEM230 (transmembrane protein 230)	3	-0.825	-2.83	3.48
RGL4 (ral guanine nucleotide dissociation stimulator like 4)	1	0.627	7.38	7.8
RGL4 (ral guanine nucleotide dissociation stimulator like 4)	2	-0.469	-0.331	5.8
RGL4 (ral guanine nucleotide dissociation stimulator like 4)	3	5.8 (active)	43.8	20.7
FBXW4 (F-box and WD repeat domain containing 4)	1	1.62	14.4	11.1
FBXW4 (F-box and WD repeat domain containing 4)	2	2.02	17.2	11
FBXW4 (F-box and WD repeat domain containing 4)	3	-0.973	-3.88	1.95
ZNHIT6 (zinc finger HIT-type containing 6)	1	0.0939	3.63	4.9
ZNHIT6 (zinc finger HIT-type containing 6)	2	-0.592	-1.2	3.77
ZNHIT6 (zinc finger HIT-type containing 6)	3	0.465	6.24	5.25
ZNF528 (zinc finger protein 528)	1	-0.118	2.14	3.55
ZNF528 (zinc finger protein 528)	2	-0.0864	2.36	6.98
ZNF528 (zinc finger protein 528)	3	-0.412	0.0717	3.65
TXK (TXK tyrosine kinase)	1	-1.25	-5.81	3.69
TXK (TXK tyrosine kinase)	2	0.471	6.28	7.53
TXK (TXK tyrosine kinase)	3	-0.108	2.21	4.8
FAF1 (Fas associated factor 1)	1	-0.57	-1.04	4.58
FAF1 (Fas associated factor 1)	2	0.779	8.45	7.62
FAF1 (Fas associated factor 1)	3	-0.59	-1.18	2.73
LRRN1 (leucine rich repeat neuronal 1)	1	3.64	28.6	14.6
LRRN1 (leucine rich repeat neuronal 1)	2	3.64	28.5	17.5
LRRN1 (leucine rich repeat neuronal 1)	3	0.227	4.56	5.96
LOC728061 (retired record)	1	-1.08	-4.65	1.84
LOC728061 (retired record)	2	-0.412	0.0682	3.57
LOC728061 (retired record)	3	-0.767	-2.43	2.02
PARVG (parvin gamma)	1	-0.261	1.13	4.75
PARVG (parvin gamma)	2	5.83 (active)	44	20.2
PARVG (parvin gamma)	3	-0.603	-1.27	5.12
ARHGEF26 (Rho guanine nucleotide exchange factor 26)	1	1.29	12.1	8.95
ARHGEF26 (Rho guanine nucleotide exchange factor 26)	2	-0.802	-2.68	2.78
ARHGEF26 (Rho guanine nucleotide exchange factor 26)	3	0.773	8.41	6.24
STIP1 (stress induced phosphoprotein 1)	1	-1.43	-7.11	2.2
STIP1 (stress induced phosphoprotein 1)	2	1.63	14.5	10.1
STIP1 (stress induced phosphoprotein 1)	3	-1.01	-4.15	1.62
PLCD4 (phospholipase C delta 4)	1	-0.75	-2.31	3.93
PLCD4 (phospholipase C delta 4)	2	-0.857	-3.06	4.16
PLCD4 (phospholipase C delta 4)	3	1.78	15.5	9.79
KNDC1 (kinase non-catalytic C-lobe domain containing 1)	1	0.157	4.07	5.81
KNDC1 (kinase non-catalytic C-lobe domain containing 1)	2	1.81	15.7	7.91
KNDC1 (kinase non-catalytic C-lobe domain containing 1)	3	2.1	17.7	8.55
CPLX2 (complexin 2)	1	0.433	6.01	6.62
CPLX2 (complexin 2)	2	-0.0207	2.82	4.23
CPLX2 (complexin 2)	3	0.958	9.71	8.79

In a second layout: results already given
HS3ST3A1 (heparan sulfate-glucosamine 3-sulfotransferase 3A1) #2: G2 robust z-score = 0.0647; G2 cells, % of GMNN control = 3.42; raw share of cells in G2 (%) = 6.14
HS3ST3A1 (heparan sulfate-glucosamine 3-sulfotransferase 3A1) #3: G2 robust z-score = -0.562; G2 cells, % of GMNN control = -0.985; raw share of cells in G2 (%) = 4.83
TSKU (tsukushi, small leucine rich proteoglycan) #1: G2 robust z-score = 1.64; G2 cells, % of GMNN control = 14.5; raw share of cells in G2 (%) = 12.7
TSKU (tsukushi, small leucine rich proteoglycan) #2: G2 robust z-score = 2.79; G2 cells, % of GMNN control = 22.6; raw share of cells in G2 (%) = 11.7
